This note sets out measurements from article PMC2719692.

Construct, isoform or probe ends are uncertain for at least one entry. For part of these data: No signal at the amounts used counts as a negative. Protein sequences can lack the tags named with them.

Holding throughout (experiment): EMSA
Common to all, as to details: EMSA: 40 mM NaCl, 5 mM MgCl2, 30 mM Tris-HCl pH 7.6, 2 mM DTT, protease inhibitors, 22 °C 15 min, then RNase T1 (described for CHO extract); 12 fmol RNA in …; recombinant protein; protein details: N-terminal GST; label: 32P (alpha-32P CTP); probe letters rebuilt from the primers and the genome
A general note: A gel shift assay detects complexes by their altered migration in electrophoresis.

Data set [1] has as its target T1, eEF1α domain I (GST fusion) (rat) (UniProt P62630).
T1 sequence (looked up, limits assumed): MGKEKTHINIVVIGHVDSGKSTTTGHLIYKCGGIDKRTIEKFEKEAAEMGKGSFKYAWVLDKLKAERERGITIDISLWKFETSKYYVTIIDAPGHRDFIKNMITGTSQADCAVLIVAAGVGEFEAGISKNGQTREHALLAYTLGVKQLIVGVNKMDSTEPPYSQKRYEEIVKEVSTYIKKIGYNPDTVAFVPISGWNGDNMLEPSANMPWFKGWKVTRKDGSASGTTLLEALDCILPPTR

Data set [2] has as its target T2, eEF1α domain II (GST fusion) (rat) (UniProt P62630).
T2 sequence (looked up, limits assumed): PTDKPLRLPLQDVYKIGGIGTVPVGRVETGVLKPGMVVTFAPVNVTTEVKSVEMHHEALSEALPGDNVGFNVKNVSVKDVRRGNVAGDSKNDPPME

Data set [3] addresses T3, eEF1α domain III (GST fusion) (rat) (UniProt P62630).
T3 sequence (looked up, limits assumed): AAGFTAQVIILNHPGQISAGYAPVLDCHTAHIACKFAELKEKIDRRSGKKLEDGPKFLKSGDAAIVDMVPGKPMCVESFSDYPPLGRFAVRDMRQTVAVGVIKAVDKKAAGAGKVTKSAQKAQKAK

Take “GGAGUGACGAACAGUGCUGCUGCCCUCAGGUGUAAAUAAUUUCCGGACCAACUCAGAGUCUUGCCGUACACCUCCACCCAGUUUACUAAACCCCGUUUUCUACCGAGCAUGUG [MT-111 (MT-1 3′UTR nt 1-111)]”: the figures for the binding result in data set [1], in data set [2] and in data set [3] were “binds”, “no binding” and “binds”, respectively.
